According to the supplement of paper PMC10849652:
The other results are listed elsewhere or left out. Residues, ends and D or L forms follow the SMILES beside them. *: point of attachment. Cbz = O=C(OCc1ccccc1)*

Sequences of proteins named here, by UniProt entry; tags and fusion partners are left off. A change or cut given only in a name is not applied to a line headed by its entry.
UniProt Q9NX94: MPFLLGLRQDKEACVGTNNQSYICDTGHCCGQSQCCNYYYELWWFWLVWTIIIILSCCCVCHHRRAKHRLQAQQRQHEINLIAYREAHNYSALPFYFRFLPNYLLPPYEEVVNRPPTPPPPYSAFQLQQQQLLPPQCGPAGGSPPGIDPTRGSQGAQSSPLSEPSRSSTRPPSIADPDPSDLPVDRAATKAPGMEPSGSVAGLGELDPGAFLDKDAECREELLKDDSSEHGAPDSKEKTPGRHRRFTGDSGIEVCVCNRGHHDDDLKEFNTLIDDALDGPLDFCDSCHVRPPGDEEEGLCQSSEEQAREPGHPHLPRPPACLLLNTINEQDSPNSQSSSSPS
UniProt Q96RL7: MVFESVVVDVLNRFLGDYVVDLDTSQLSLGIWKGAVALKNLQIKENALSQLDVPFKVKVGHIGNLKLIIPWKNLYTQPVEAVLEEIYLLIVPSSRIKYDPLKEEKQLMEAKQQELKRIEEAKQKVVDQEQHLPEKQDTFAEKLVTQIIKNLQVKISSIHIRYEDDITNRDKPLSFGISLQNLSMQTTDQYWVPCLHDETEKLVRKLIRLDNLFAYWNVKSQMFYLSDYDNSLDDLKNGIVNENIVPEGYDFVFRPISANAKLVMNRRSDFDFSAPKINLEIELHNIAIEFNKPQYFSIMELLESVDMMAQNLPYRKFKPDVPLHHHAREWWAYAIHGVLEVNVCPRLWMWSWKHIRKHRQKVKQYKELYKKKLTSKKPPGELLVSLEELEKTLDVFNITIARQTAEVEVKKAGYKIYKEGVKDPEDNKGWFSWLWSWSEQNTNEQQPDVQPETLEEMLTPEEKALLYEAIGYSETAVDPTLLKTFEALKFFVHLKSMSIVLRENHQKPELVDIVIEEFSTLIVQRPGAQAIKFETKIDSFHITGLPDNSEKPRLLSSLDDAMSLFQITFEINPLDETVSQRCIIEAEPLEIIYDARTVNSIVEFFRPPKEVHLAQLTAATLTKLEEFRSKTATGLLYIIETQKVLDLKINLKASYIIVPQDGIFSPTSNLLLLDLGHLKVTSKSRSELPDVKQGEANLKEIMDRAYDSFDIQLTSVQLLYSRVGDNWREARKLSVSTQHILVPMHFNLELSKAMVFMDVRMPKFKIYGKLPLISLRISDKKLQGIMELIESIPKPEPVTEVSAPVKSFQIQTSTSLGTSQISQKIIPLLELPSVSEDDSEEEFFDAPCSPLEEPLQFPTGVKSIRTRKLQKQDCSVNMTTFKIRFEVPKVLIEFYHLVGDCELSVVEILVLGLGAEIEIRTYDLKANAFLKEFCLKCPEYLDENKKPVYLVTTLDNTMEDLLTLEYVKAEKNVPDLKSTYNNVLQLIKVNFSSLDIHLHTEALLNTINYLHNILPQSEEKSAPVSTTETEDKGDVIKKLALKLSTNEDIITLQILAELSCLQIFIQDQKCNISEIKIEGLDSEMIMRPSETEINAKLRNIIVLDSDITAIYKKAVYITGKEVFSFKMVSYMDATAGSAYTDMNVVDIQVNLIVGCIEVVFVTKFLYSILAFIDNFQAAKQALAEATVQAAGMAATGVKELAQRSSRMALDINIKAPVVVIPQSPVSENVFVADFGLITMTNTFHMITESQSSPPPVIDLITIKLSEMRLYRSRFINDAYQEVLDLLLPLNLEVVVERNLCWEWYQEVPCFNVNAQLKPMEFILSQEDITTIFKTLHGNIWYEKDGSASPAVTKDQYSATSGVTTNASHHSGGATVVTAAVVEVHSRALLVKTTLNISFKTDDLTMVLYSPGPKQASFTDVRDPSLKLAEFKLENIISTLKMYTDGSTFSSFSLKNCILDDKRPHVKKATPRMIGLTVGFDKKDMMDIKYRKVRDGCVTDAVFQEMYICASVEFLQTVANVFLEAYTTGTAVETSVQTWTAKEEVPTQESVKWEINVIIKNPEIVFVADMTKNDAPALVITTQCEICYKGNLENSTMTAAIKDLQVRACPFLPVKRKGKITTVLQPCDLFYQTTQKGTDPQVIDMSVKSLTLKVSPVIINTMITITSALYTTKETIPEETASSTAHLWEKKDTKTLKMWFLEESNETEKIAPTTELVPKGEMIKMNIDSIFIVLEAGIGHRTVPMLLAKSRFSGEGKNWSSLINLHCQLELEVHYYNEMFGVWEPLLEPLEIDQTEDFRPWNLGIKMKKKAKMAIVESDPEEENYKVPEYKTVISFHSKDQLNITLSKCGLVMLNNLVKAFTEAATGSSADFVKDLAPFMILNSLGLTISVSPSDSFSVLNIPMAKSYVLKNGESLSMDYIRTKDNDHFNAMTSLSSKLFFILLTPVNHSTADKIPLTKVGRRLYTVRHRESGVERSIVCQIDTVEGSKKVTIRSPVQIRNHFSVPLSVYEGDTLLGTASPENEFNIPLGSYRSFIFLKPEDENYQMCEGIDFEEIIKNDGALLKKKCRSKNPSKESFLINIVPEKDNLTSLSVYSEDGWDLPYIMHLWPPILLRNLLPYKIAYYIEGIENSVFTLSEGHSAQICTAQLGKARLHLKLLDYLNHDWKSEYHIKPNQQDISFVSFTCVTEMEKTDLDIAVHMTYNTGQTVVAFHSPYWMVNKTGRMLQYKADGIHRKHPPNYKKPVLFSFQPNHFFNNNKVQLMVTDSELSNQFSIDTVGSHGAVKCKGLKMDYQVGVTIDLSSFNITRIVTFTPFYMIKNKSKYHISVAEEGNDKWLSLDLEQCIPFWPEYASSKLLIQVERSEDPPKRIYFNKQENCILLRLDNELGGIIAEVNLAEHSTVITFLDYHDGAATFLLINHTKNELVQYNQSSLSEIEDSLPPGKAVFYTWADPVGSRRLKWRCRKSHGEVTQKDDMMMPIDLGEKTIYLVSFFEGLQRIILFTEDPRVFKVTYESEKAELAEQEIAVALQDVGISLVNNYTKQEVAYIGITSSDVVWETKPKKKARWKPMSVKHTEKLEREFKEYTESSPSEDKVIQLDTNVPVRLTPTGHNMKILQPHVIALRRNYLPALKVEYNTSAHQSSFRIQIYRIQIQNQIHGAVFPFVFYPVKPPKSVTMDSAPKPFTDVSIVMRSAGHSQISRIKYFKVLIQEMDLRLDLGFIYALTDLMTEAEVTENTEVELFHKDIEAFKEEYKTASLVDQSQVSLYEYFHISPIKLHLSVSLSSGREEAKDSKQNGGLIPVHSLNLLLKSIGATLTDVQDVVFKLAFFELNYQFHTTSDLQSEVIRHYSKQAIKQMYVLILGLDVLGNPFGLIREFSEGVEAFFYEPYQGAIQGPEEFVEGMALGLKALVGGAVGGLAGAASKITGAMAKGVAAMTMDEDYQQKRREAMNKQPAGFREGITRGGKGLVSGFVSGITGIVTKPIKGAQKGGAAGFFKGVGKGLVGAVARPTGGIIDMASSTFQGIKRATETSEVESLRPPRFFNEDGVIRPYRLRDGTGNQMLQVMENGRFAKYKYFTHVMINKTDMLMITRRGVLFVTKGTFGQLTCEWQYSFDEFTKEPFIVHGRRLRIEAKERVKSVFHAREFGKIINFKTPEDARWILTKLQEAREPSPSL
UniProt Q5JSD2: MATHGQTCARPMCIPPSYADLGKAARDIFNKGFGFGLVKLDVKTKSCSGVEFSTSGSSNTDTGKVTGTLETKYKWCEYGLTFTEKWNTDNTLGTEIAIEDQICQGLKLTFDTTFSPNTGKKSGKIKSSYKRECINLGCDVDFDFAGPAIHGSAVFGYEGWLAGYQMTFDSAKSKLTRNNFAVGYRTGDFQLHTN
UniProt P04275, whole entry, looked up: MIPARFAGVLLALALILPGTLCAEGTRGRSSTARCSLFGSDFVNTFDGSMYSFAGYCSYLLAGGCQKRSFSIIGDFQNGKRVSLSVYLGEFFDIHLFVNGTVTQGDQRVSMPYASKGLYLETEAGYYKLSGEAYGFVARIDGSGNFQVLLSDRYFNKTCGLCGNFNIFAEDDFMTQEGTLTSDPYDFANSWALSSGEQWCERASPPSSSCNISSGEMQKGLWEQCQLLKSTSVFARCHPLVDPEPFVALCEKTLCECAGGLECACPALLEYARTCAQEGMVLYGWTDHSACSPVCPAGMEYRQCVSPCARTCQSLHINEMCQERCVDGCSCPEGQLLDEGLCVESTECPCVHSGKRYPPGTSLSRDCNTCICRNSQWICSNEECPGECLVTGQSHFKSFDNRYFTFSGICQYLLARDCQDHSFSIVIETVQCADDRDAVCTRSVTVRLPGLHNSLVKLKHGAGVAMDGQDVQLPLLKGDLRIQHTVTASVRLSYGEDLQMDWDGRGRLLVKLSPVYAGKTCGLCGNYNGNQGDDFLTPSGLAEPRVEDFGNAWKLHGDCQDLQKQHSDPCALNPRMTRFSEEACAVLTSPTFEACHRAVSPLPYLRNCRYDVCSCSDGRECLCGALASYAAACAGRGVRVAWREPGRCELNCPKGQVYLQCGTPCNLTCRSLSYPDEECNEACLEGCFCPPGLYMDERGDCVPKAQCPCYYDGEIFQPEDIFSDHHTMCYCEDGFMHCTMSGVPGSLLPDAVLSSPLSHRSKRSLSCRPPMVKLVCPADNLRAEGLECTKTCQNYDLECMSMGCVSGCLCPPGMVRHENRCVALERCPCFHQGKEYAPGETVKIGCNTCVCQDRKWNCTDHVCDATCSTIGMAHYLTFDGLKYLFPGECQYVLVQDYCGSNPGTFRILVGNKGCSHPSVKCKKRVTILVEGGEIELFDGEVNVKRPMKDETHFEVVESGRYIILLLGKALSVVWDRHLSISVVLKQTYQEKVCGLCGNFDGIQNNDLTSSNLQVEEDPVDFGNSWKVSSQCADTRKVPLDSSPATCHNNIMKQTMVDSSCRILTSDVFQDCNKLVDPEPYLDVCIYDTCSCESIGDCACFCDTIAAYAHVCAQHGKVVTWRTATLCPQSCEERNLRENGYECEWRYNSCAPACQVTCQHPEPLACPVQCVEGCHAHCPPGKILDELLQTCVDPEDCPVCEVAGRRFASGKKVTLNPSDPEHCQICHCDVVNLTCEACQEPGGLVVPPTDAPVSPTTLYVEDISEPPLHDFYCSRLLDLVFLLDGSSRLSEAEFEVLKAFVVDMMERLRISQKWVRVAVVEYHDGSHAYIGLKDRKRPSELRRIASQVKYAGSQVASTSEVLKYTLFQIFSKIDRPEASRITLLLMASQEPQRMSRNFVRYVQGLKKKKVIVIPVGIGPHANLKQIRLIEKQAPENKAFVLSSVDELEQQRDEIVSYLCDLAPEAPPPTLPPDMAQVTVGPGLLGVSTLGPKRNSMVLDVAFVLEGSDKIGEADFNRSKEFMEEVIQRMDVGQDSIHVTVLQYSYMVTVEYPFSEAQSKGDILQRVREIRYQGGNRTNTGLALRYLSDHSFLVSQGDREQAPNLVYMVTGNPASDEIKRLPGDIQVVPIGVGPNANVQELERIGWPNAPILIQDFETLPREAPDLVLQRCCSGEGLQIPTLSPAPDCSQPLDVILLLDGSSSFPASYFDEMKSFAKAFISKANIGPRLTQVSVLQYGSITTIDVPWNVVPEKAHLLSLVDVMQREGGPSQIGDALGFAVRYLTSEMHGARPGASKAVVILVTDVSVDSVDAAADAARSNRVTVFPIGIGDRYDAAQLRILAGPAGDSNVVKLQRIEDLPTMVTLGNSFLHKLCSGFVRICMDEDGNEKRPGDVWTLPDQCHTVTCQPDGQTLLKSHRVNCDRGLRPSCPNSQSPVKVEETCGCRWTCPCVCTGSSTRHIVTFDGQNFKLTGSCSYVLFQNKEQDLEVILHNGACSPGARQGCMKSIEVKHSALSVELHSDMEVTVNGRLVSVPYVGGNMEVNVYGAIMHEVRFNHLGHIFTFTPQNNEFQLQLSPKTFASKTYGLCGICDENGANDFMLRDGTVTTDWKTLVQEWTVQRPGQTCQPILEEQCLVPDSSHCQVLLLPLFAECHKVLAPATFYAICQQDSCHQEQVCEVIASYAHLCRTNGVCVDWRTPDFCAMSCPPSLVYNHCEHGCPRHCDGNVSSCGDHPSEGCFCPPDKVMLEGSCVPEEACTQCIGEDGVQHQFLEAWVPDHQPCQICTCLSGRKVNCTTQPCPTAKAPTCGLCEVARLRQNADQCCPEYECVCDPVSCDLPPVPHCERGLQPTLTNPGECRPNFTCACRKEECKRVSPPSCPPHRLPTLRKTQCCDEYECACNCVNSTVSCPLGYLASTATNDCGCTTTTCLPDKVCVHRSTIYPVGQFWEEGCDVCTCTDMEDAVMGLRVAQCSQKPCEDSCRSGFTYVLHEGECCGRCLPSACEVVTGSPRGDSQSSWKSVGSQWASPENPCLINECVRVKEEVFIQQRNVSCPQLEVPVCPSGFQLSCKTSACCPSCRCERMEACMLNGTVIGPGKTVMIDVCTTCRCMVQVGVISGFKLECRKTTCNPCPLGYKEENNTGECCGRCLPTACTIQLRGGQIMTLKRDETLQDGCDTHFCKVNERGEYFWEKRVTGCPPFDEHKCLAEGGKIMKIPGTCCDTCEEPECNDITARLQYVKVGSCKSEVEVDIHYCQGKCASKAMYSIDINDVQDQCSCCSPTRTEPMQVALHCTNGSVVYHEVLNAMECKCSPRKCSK

Legend:
Assay in all cases: log2 fold change, soluble protein after heating vs DMSO (PISA); higher = thermal stabilisation; K562 cells, 10 uM, 30 min; active = over 0.2 and 3.5 SD of the protein, either way, in both replicates (recomputed)
[1] = compound: C1=CC2=NC=CN=C2C=C1/C=C/3\C(=O)NC(=O)S3
In short: (§1)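 Soluble protein was quantified by TMTpro 16plex LC-MS/MS after channel sums were equalised. It was obtained as the supernatant after 21,000xg for 90 min from pooled aliquots of K562 cells (2×10^6 cells/mL, 10 μM compound, 30 min) heated for 3 min across 48°C-58°C and extracted in PBS with 0.5% NP-40 at 4°C. Thermal stability values are relative to control samples and come from duplicates. They are given as log2 fold changes.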

ibrutinib = compound: C=CC(=O)N1CCC[C@@H](n2nc(-c3ccc(Oc4ccccc4)cc3)c3c(N)ncnc32)C1 [ibrutinib]
In short: as §1

[2] = compound: C1=CC(=C(C=C1Cl)C2=NC3=NC=CN=C3C(=N2)NC4=CC=NC=C4)F
In short: as §1

[3] = compound: CC(C)(O)CC(=O)NCCn1ccc2ncnc(Nc3ccc(Oc4cccc(C(F)(F)F)c4)c(Cl)c3)c21
In short: as §1

erlotinib = compound: C#Cc1cccc(Nc2ncnc3cc(OCCOC)c(OCCOC)cc23)c1 [erlotinib]
In short: as §1

[4] = compound: C1=CC(=CC=C1C2=NC3=C(N2)C=C(C=C3)C(=O)N)OC4=CC=C(C=C4)Cl
In short: as §1

[5] = compound: CC(C)C1=C2N=C(C=C(N2N=C1)NCC3=CC=CC=C3)NCCCCCCN
In short: as §1

[6] = compound: CC1=C(C(CC(=O)N1)C2=CC=C(C=C2)C(F)(F)F)C(=O)NC3=C(C=C4C(=C3)C=NN4)F
In short: as §1

[7] = compound: C1=CC=C(C=C1)C2=NC(=C(N2)C3=CC=NC=C3)C4=CC(=C(C=C4)Cl)O
In short: as §1

[8] = compound: C1CCN(C1)C(=O)NC2=CC=CC(=C2)NC3=NC=C(C(=N3)NCCC4=CN=CN4)Br
In short: as §1

[9] = compound: C1CN(CCC1(CC2=CC=C(C=C2)Cl)N)C3=NC=NC4=C3C=CN4
In short: as §1

ralimetinib = compound: CC(C)(C)Cn1c(N)nc2ccc(-c3[nH]c(C(C)(C)C)nc3-c3ccc(F)cc3)nc21 [ralimetinib]
In short: as §1

[10] = compound: CC(C)C[C@@H](C=O)NC(=O)[C@H](CC(C)C)NC(=O)[C@H](CC(C)C)NC(=O)OCc1ccccc1
In short: as §1

[11] = compound: CC1=C(C2=C(C=C1)C(=O)C3=CC=CC=C3N2CCCN)C
In short: as §1

IRAK-1-4 Inhibitor I = compound: C1COCCN1CCN2C3=CC=CC=C3N=C2NC(=O)C4=CC(=CC=C4)[N+](=O)[O-] [IRAK-1-4 Inhibitor I]
In short: as §1

pinometostat = compound: CC(C)N(C[C@H]1O[C@@H](n2cnc3c(N)ncnc32)[C@H](O)[C@@H]1O)[C@H]1C[C@@H](CCc2nc3cc(C(C)(C)C)ccc3[nH]2)C1 [pinometostat]
In short: as §1

[12] = compound: C/C(=N\NC(=O)C1=CC(=CC=C1)S(=O)(=O)N2CCOCC2)/C3=C(C=CC(=C3)Cl)O
In short: as §1

[13] = compound: C1=CC2=C(C=CC(=C2)/C=C\3/C(=O)NC(=NCC4=CC=CS4)S3)N=C1
In short: as §1

[14] = compound: C1=CC=C2C(=C1)C3=NNC4=CC=CC(=C43)C2=O
In short: as §1

[15] = compound: CC(=O)c1cnc2ccc(-c3cc(Cl)c(O)c(Cl)c3)nc2c1N[C@H]1CC[C@H](CN(C)C)CC1
In short: as §1

Measured: log2 fold change

WBP1L isoform 2 (UniProt Q9NX94)
inactive: [1] 0.254 | ibrutinib -0.11

WDR4 isoform 3 (UniProt P57081)
inactive: [2] -0.144 | [1] 0.045 | ibrutinib -0.157 | [3] -0.126

WDR83 (UniProt Q9BRX9)
inactive: erlotinib -0.323 | [4] 0.049 | [5] 0.239

WDR54 isoform 4 (UniProt Q9H977)
inactive: [6] 0.102

VPS13A isoform 4 (UniProt Q96RL7)
inactive: erlotinib 0.073 | [4] 0.03 | [7] 0.013 | [8] -0.099 | [9] 0.075 | ralimetinib 0.043 | [5] 0.054 | [10] -0.323 | [11] 0.062

VDAC2 (UniProt Q5JSD2)
inactive: [2] 0.035 | [1] 0.092 | [3] -0.027 | [6] 0.173

WDR13, A0A087X091
inactive: IRAK-1-4 Inhibitor I 0.213 | pinometostat 0.003 | [6] 0.105

VDAC2 (UniProt Q5JSD1)
inactive: [2] 0.059 | [1] 0.155 | [7] -0.139 | ralimetinib -0.149 | [3] 0.309 | [10] 0.24 | [6] 0.213

VWF (UniProt P04275)
inactive: [12] -0.041 | [13] 0.033 | [14] 0.074 | IRAK-1-4 Inhibitor I 0.022 | [15] 0.003 | pinometostat -0.066

WAC (UniProt Q9BTA9)
inactive: IRAK-1-4 Inhibitor I -0.035 | pinometostat -0.117

WDR91 (UniProt A4D1P6)
inactive: [12] 0.15 | [2] -0.071 | [13] 0.018 | [1] 0.081 | [7] 0.2 | [14] -0.058 | [8] 0.118 | [9] -0.365 | IRAK-1-4 Inhibitor I -0.047 | ibrutinib 0.171 | [15] -0.07 | ralimetinib 0.192 | [3] 0.095 | [10] -0.088 | pinometostat 0 | [11] 0.13

WARS1 (UniProt G3V3P2)
inactive: [1] 0.155 | ibrutinib -0.036

2 consecutive records from above, quoted:
VWF (UniProt P04275)
inactive: [12] -0.041 | [13] 0.033 | [14] 0.074 | IRAK-1-4 Inhibitor I 0.022 | [15] 0.003 | pinometostat -0.066

WAC (UniProt Q9BTA9)
inactive: IRAK-1-4 Inhibitor I -0.035 | pinometostat -0.117

Additional entries

WIPI2 isoform 6 (UniProt Q9Y4P8)
inactive: [12] -0.003 | [13] 0.09 | [1] 0.003 | [14] -0.108 | ibrutinib -0.073 | [15] 0.045

VIRMA (UniProt Q69YN4)
inactive: erlotinib 0.031 | [2] -0.099 | [4] -0.005 | [1] 0.181 | [7] -0.015 | IRAK-1-4 Inhibitor I -0.105 | ibrutinib -0.07 | ralimetinib -0.033 | [3] -0.061 | [5] -0.052 | [10] 0.123 | pinometostat 0.042 | [6] 0.176

WARS1 (UniProt G3V339)
inactive: [2] -0.023 | [3] 0.044
